The nature of the series: general procedure: Fmoc solid-phase peptide synthesis; Rink Amide-Resin or Rink Amide-MBHA-Resin; support resin with 4-(2,4-dimethoxyphenyl-Fmoc-aminomethyl)-phenoxy group; PyBOP/HOBt/NMM. The following applies: whole synthesis, scale 60 mg resin.

As for “CH3 (CH2)6 COCysLeuTyrArgLysMetArgLeuArgTyrProVal”, the crude mass is given as 62.4 mg.
“HCysLeuTyrArgLysMetArgLeuArgTyrProValCysNH2” came in with a crude mass of 52.6 mg and an isolated mass of 16.5 mg.

Values taken from US5847074A (Kyowa Hakko Kogyo Co., Ltd., priority 1993, dated 1998).
